From the supplement of paper PMC9015667
Structures can show the parent of a compound that is named as a salt. Some of the results follow. Repeats are few or missing, and single values can be far off.

Tests used:
Experiment in all cases: reduction in cell viability relative to untreated/vehicle; higher = more growth inhibition
Settings in all cases: 200 nM; 72 h
[1] = tested on: M229P (parental melanoma line)
[2] = tested on: M229R (matched melanoma line resistant to BRAF inhibitors)
[3] = tested on: M238P (parental melanoma line)
[4] = tested on: M238R (matched melanoma line resistant to BRAF inhibitors)
[5] = tested on: M249P (parental melanoma line)
[6] = tested on: M249R (matched melanoma line resistant to BRAF inhibitors)
[7] = tested on: UACC62P (parental melanoma line)
[8] = tested on: UACC62R (matched melanoma line resistant to BRAF inhibitors)

Row | SMILES | reduction in cell viability [1] | reduction in cell viability [2] | reduction in cell viability [3] | reduction in cell viability [4] | reduction in cell viability [5] | reduction in cell viability [6] | reduction in cell viability [7] | reduction in cell viability [8]
1 | CC[C@@]1([C@@H]2O[C@@H]([C@H]3O[C@@](O)(CO)[C@H](C)C[C@@H]3C)C[C@@H]2C)CC[C@H]([C@]2(C)CC[C@]3(C[C@H](O)[C@@H](C)[C@@H]([C@@H](C)[C@@H](OC)[C@H](C)C(=O)O)O3)O2)O1 [Monensin sodium salt] | 20.1% | 20.7% | 32.5% | < 0% | < 0% | < 0% | 12.6% | 17.9%
2 | CNCC(O)c1ccc(O)cc1 (configuration not stated) [Synephrine] | < 0% | < 0% | < 0% | < 0% | < 0% | < 0% | < 0% | < 0%
3 | C1=C2CCCN[C@H]2[C@@H]2C[C@H]1[C@H]1CCCCN1C2 [Aloperine] | < 0% | < 0% | < 0% | < 0% | < 0% | < 0% | < 0% | < 0%
4 | CN1C(=O)COc2c(C(=O)NC3CN4CCC3CC4)cc(Cl)cc21 (configuration not stated) [Azasetron] | < 0% | < 0% | < 0% | < 0% | < 0% | < 0% | 4.09% | < 0%
5 | COc1ccc(C(=O)c2c(C)n(CCN3CCOCC3)c3ccccc23)cc1 [Pravadoline] | < 0% | < 0% | < 0% | < 0% | < 0% | < 0% | < 0% | < 0%
6 | O=[N+]([O-])c1ncc[nH]1 [Azomycin] | < 0% | < 0% | < 0% | < 0% | < 0% | < 0% | < 0% | < 0%
7 | CC[C@@H]1/C=C/C=C/C[C@H](C)[C@H](O)[C@](C)(O)C(=O)[C@H](C)[C@@H](O)[C@H](C)C(=O)[C@H](C)[C@@H](O)[C@H](C)/C=C/C(=O)O[C@H]2[C@@H](C)[C@@H](CC1)O[C@@]1(CC[C@@H](C)[C@@H](C[C@H](C)O)O1)[C@@H]2C [Oligomycin A] | < 0% | 1.15% | 8.62% | < 0% | < 0% | 8.63% | < 0% | < 0%
8 | CCNC(=O)C[C@H]1N=C(c2ccc(Cl)cc2)c2cc(OC)ccc2-n2c(C)nnc21 | < 0% | < 0% | < 0% | < 0% | < 0% | < 0% | < 0% | < 0%
9 | COc1ccc(N(C(=O)Oc2c(C)cccc2C)c2ccnc(Nc3ccc(N4CCN(C)CC4)cc3)n2)c(OC)c1 | < 0% | < 0% | < 0% | < 0% | < 0% | < 0% | < 0% | < 0%
10 | C/C(=C\c1csc(C)n1)[C@@H]1C[C@@H]2O[C@]2(C)CCC[C@H](C)[C@H](O)[C@@H](C)C(=O)C(C)(C)[C@@H](O)CC(=O)O1 [Epothilone B] | 27.2% | 44.3% | 80.1% | 75.6% | 57% | 49.8% | 47.2% | 87.7%
11 | O=C(Oc1ccc([N+](=O)[O-])cc1)N1CCC(C(O)(c2ccc3c(c2)OCO3)c2ccc3c(c2)OCO3)CC1 | < 0% | < 0% | < 0% | < 0% | < 0% | < 0% | < 0% | < 0%
12 | C[C@]12CC[C@H](O)CC1=CC[C@@H]1[C@@H]2CC[C@]2(C)C(=O)CC[C@@H]12 [Dehydroepiandrosterone] | < 0% | < 0% | < 0% | < 0% | < 0% | < 0% | < 0% | < 0%
13 | C[C@]12CC[C@H]3[C@@H](CC[C@@]45O[C@@H]4C(O)=C(C#N)C[C@]35C)[C@@H]1CC[C@@H]2O [Trilostane] | < 0% | < 0% | < 0% | < 0% | < 0% | < 0% | 1.91% | < 0%
14 | CC(C)C[C@H](CN)CC(=O)O [Pregabalin] | < 0% | < 0% | < 0% | < 0% | < 0% | < 0% | < 0% | < 0%
15 | CCC1(c2ccc(N)cc2)CCC(=O)NC1=O (configuration not stated) [Aminoglutethimide] | < 0% | < 0% | < 0% | < 0% | < 0% | < 0% | < 0% | < 0%
16 | O=c1[nH]c2ccccc2n1C1CCN(Cc2ccc(-c3[nH]c4cc5ncnc5cc4nc3-c3ccccc3)cc2)CC1 [AKT inhibitor VIII] | < 0% | < 0% | < 0% | < 0% | < 0% | < 0% | < 0% | < 0%
17 | CC(=O)OCC1=C(C(=O)O)N2C(=O)[C@@H](N)[C@H]2SC1 [7-Aminocephalosporanic acid] | < 0% | < 0% | < 0% | < 0% | < 0% | < 0% | < 0% | < 0%
18 | C[C@]12COC(=O)C[C@@H]1CC[C@@H]1[C@@H]2CC[C@@]2(C)[C@H]1CC[C@]2(C)O [Oxandrolone] | < 0% | < 0% | < 0% | < 0% | < 0% | < 0% | 1.29% | < 0%
19 | C[C@]12Cc3c[nH]nc3C[C@@H]1CC[C@@H]1[C@@H]2CC[C@@]2(C)[C@H]1CC[C@]2(C)O [Stanozolol] | < 0% | < 0% | < 0% | < 0% | < 0% | < 0% | < 0% | < 0%
20 | C#C[C@]1(O)C=C[C@H]2[C@@H]3CCC4=CC(=O)CC[C@@H]4[C@H]3CC[C@@]21CC [Gestodene] | < 0% | < 0% | < 0% | < 0% | < 0% | < 0% | 3.23% | < 0%
21 | COCC1(CO)C(=O)C2CCN1CC2 (configuration not stated) | < 0% | < 0% | < 0% | < 0% | < 0% | < 0% | < 0% | < 0%
22 | C[C@@H]1C[C@@H]([C@H](O)CC2CC(=O)NC(=O)C2)C(=O)[C@@H](C)C1 [cycloheximide] | < 0% | < 0% | < 0% | < 0% | < 0% | < 0% | 3.92% | < 0%
23 | COc1cc([C@@H]2c3cc4c(cc3[C@H](O)[C@H]3COC(=O)[C@H]23)OCO4)cc(OC)c1OC [Podofilox] | 31.9% | 45% | 48.3% | 56.9% | 43.2% | 43.9% | 56.8% | 85.3%
24 | CCCC(C)(COC(N)=O)COC(=O)NC(C)C (configuration not stated) [Carisoprodol] | < 0% | < 0% | < 0% | < 0% | < 0% | < 0% | 3.19% | < 0%
25 | C[C@]12CC[C@@H]3c4ccc(OC(=O)N(CCCl)CCCl)cc4CC[C@H]3[C@@H]1CC[C@@H]2OP(=O)(O)O [Estramustine phosphate sodium] | < 0% | < 0% | < 0% | < 0% | < 0% | < 0% | < 0% | < 0%
26 | CC(=O)O[C@H]1C[C@@H]2CC[C@@H]3[C@H](CC[C@@]4(C)[C@H]3C[C@H]([N+]3(C)CCCCC3)[C@@H]4OC(C)=O)[C@@]2(C)C[C@@H]1[N+]1(C)CCCCC1 [Pancuronium bromide] | < 0% | < 0% | 11.2% | < 0% | < 0% | < 0% | 0.6% | < 0%
27 | COc1cc2c(cc1OC)C1CC(=O)C(CC(C)C)CN1CC2 (configuration not stated) [Tetrabenazine] | < 0% | < 0% | < 0% | < 0% | < 0% | < 0% | < 0% | < 0%
28 | O=P1(NCCCl)OCCCN1CCCl (configuration not stated) [Ifomide] | < 0% | < 0% | < 0% | < 0% | < 0% | < 0% | < 0% | < 0%
29 | COC1=C[C@@H]2[C@@H]3Cc4ccc(OC)c(O)c4[C@]2(CCN3C)CC1=O [Sinomenine] | < 0% | < 0% | < 0% | < 0% | < 0% | < 0% | < 0% | < 0%

Exported as tab-separated lines: part of the list above.
Row	SMILES	reduction in cell viability [1]	reduction in cell viability [2]	reduction in cell viability [3]	reduction in cell viability [4]	reduction in cell viability [5]	reduction in cell viability [6]	reduction in cell viability [7]	reduction in cell viability [8]
18	C[C@]12COC(=O)C[C@@H]1CC[C@@H]1[C@@H]2CC[C@@]2(C)[C@H]1CC[C@]2(C)O [Oxandrolone]	< 0%	< 0%	< 0%	< 0%	< 0%	< 0%	1.29%	< 0%
22	C[C@@H]1C[C@@H]([C@H](O)CC2CC(=O)NC(=O)C2)C(=O)[C@@H](C)C1 [cycloheximide]	< 0%	< 0%	< 0%	< 0%	< 0%	< 0%	3.92%	< 0%
